According to the supplement of paper PMC10849652:
The other results are listed elsewhere or left out.

Protein sequences, listed by entry. Tags and fused reporters are not part of them. Lines headed by an entry give the natural chain unless they say otherwise; changes in a name come on top.
UniProt O00303, whole entry, looked up: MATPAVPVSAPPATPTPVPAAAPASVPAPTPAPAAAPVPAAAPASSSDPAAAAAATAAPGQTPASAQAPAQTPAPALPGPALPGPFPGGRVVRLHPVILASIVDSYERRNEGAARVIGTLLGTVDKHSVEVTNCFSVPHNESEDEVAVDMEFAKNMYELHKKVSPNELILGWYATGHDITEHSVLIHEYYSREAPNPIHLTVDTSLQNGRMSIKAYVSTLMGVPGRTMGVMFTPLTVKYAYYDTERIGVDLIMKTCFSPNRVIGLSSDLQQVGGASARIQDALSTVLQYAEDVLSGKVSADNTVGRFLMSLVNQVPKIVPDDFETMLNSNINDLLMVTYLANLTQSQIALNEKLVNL
UniProt Q9NPA8: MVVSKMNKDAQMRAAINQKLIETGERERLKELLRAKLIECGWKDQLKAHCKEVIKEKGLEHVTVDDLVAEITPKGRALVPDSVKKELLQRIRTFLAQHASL
UniProt Q9H223: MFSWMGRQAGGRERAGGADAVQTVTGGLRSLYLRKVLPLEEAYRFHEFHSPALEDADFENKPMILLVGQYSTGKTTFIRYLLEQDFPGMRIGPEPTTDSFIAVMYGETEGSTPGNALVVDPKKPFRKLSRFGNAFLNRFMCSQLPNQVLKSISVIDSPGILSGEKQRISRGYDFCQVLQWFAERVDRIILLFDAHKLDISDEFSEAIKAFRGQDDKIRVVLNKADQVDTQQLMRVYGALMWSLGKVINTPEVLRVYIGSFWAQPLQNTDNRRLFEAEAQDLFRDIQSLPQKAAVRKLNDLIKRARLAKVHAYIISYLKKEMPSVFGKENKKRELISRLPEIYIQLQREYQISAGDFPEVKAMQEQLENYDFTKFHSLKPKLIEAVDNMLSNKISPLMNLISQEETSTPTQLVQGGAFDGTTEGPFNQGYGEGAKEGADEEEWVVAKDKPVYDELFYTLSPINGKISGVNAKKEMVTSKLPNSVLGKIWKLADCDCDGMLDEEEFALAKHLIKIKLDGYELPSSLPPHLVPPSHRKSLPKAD
UniProt O60739, whole entry, looked up: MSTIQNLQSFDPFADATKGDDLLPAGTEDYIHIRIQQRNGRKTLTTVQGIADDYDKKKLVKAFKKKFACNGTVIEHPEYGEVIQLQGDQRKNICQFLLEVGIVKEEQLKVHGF
UniProt Q96EB1: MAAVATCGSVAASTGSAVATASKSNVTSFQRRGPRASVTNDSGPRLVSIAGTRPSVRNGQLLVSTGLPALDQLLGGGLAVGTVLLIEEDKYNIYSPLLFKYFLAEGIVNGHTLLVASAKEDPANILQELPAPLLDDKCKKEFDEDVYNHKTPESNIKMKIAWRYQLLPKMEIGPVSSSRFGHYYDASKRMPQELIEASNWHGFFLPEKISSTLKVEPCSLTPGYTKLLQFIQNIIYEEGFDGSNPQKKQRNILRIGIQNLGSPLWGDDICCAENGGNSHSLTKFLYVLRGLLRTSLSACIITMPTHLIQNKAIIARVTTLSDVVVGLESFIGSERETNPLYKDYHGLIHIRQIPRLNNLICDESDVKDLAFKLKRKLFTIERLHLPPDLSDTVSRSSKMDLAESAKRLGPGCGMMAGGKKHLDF
UniProt Q9H0I2: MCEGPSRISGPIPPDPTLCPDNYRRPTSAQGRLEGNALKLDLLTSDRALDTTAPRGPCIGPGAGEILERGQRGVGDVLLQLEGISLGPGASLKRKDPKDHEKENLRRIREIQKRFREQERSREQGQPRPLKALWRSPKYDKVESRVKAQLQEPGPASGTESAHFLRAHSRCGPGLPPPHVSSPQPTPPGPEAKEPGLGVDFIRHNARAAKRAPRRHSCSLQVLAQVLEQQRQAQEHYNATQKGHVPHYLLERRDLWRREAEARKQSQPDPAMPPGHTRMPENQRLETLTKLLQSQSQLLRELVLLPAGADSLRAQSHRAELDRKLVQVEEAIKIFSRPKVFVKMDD
UniProt Q9Y262, whole entry, looked up: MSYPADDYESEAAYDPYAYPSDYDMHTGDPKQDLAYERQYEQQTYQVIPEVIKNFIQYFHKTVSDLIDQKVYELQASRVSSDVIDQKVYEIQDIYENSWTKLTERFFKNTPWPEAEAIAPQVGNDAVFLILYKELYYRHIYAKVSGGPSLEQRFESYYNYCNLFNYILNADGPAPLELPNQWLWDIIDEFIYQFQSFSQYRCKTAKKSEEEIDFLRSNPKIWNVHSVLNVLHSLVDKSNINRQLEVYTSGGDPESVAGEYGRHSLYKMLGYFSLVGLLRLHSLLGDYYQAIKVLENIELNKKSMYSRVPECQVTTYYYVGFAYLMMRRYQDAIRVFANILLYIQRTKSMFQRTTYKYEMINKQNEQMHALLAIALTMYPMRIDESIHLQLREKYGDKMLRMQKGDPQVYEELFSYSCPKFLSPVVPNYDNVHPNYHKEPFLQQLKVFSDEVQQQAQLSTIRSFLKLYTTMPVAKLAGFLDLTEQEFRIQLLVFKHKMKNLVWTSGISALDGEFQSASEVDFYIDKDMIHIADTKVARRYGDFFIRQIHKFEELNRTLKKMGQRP
UniProt P63241: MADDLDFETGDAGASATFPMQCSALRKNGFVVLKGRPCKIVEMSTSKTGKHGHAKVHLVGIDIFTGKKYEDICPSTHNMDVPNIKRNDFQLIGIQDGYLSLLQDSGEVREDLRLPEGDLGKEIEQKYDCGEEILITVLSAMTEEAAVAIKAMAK
UniProt Q9NR50: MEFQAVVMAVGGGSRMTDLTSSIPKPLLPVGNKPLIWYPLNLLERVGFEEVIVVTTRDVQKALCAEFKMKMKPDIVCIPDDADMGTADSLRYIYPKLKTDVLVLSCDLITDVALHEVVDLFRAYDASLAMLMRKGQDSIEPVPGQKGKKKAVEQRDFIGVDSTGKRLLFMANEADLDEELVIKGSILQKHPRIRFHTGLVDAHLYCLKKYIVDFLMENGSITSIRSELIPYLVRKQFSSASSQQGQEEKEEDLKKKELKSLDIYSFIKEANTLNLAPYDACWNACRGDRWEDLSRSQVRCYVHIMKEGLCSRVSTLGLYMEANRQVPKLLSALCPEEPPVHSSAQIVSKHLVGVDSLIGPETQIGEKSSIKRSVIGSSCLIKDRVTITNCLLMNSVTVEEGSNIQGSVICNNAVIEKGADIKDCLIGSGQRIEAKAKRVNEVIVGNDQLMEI
UniProt Q15029: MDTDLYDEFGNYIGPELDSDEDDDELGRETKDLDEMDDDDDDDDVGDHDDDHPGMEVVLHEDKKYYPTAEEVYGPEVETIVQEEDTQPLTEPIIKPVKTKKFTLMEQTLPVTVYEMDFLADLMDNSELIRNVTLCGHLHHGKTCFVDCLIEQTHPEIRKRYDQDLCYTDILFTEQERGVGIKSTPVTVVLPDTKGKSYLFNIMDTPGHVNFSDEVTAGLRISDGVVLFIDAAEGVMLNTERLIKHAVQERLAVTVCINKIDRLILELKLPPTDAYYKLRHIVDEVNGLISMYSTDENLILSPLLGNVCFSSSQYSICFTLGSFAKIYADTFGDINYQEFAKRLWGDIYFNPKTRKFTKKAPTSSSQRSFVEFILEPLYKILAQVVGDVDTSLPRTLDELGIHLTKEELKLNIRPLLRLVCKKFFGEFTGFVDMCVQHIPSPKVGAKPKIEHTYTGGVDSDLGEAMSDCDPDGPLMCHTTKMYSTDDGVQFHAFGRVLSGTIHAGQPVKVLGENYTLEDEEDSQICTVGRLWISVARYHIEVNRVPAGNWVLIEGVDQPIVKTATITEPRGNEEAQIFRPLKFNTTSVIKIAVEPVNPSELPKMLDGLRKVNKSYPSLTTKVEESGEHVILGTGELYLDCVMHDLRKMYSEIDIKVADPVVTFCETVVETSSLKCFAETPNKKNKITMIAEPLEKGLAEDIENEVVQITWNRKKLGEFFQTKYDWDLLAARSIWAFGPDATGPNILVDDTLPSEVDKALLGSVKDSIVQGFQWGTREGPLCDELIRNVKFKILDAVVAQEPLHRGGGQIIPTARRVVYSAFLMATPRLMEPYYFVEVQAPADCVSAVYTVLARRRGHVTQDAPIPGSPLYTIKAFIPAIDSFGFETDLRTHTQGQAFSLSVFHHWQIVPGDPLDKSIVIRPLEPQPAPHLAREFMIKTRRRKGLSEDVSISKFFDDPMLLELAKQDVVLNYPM
UniProt P06733, whole entry, looked up: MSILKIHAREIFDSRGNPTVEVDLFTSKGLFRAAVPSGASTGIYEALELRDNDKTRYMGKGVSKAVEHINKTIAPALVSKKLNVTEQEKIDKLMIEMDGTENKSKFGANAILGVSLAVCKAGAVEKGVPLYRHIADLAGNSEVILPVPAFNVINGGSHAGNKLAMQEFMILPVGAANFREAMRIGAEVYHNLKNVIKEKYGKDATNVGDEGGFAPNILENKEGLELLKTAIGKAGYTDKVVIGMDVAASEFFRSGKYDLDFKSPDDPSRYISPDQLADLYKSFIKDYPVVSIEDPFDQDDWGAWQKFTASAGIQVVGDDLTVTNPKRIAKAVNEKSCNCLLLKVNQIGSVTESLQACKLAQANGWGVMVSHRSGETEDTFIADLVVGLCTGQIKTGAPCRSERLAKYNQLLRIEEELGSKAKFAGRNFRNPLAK
UniProt Q5VUJ9: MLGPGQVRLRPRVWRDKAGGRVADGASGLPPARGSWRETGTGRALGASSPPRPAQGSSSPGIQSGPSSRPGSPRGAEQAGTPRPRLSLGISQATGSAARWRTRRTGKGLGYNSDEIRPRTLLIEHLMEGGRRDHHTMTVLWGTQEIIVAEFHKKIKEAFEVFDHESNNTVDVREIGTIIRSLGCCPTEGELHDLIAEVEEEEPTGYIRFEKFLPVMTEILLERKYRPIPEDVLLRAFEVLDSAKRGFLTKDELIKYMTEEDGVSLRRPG
UniProt Q9NPA0: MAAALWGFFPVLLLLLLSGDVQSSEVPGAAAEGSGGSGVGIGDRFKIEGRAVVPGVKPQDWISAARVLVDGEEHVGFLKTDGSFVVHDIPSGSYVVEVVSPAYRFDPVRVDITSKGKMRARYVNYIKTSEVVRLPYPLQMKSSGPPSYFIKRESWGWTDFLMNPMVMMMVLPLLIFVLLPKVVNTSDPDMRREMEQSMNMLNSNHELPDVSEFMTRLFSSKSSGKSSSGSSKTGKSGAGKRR
UniProt Q9NRA8: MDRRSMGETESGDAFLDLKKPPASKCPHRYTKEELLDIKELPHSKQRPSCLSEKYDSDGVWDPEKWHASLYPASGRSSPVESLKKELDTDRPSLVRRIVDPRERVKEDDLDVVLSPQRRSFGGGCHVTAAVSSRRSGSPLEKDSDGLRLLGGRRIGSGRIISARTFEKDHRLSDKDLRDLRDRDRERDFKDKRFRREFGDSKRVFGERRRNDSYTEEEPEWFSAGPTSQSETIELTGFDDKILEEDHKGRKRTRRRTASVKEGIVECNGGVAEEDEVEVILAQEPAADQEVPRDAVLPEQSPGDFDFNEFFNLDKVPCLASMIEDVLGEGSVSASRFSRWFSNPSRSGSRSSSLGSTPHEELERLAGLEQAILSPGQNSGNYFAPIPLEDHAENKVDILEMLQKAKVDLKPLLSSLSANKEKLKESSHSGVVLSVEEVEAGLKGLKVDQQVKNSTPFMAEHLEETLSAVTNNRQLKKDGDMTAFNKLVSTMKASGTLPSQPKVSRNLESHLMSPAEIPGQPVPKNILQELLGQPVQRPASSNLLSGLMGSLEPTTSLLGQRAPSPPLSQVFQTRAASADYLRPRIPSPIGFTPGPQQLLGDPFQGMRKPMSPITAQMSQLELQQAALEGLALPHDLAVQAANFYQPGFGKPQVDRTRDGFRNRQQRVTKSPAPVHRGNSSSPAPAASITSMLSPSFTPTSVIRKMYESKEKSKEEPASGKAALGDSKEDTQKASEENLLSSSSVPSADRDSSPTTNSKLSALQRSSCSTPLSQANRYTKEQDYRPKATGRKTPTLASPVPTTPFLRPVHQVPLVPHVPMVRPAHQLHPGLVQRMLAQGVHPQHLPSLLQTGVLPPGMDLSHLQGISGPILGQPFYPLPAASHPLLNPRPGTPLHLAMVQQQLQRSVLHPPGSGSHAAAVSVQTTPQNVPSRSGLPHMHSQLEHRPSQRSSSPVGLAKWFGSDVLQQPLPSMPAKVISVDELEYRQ
UniProt Q7L2H7, whole entry, looked up: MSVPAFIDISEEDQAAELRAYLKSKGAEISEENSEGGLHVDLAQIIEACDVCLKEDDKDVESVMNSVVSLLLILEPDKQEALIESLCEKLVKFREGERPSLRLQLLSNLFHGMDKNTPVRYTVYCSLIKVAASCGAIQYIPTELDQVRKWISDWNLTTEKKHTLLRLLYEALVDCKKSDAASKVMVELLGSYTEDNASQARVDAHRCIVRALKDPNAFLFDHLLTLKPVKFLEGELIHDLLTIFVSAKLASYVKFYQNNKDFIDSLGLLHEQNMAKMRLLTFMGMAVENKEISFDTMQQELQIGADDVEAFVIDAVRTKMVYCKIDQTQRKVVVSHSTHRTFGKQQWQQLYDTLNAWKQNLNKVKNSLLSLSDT
UniProt Q96C19: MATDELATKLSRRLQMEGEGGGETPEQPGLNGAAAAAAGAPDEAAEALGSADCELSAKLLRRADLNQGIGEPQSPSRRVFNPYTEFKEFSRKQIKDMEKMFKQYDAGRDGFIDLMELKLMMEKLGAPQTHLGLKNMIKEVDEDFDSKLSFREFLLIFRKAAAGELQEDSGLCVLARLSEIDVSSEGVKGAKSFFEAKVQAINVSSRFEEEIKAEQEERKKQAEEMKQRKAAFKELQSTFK

compound: c1cn2cc(-c3ccc4cn[nH]c4c3)nc(Nc3ccc(N4CCOCC4)cc3)c2n1 [entospletinib]; experiment: log2 fold change, soluble protein after heating vs DMSO (PISA); higher = thermal stabilisation; K562 cells, 10 uM, 30 min; active = over 0.2 and 3.5 SD of the protein, either way, in both replicates (recomputed)
In short: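 K562 cells (2×10^6 cells/mL) were treated with 10 μM compound for 30 min, and aliquots were heated for 3 min over 48°C-58°C. Pooled aliquots were extracted in PBS with 0.5% NP-40 at 4°C, and the supernatant after 21,000xg for 90 min was measured by TMTpro 16plex LC-MS/MS with channel sums equalised. Reported thermal stability, relative to control samples and from duplicates, is a log2 fold change.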

log2 fold change, inactive:
EIF6 (UniProt P56537) -0.007
EML2 isoform 3 (UniProt O95834) 0.016
EIF3F (UniProt O00303) 0.04
ENY2 (UniProt Q9NPA8) 0.169
EPB41, A0A2R8Y6D0 0.214
EHD4 (UniProt Q9H223) -0.021
EIF1B (UniProt O60739) 0.093
EHMT2 (UniProt Q96KQ7) 0.061
ELP4 isoform 3 (UniProt Q96EB1) 0.006
ELP4 (UniProt Q96EB1) -0.027
ENKD1 (UniProt Q9H0I2) -0.013
ENTPD6 (UniProt O75354) -0.074
EIF4A2 isoform 2 (UniProt Q14240) -0.04
EIF3L (UniProt Q9Y262) -0.015
EIF4E3 (UniProt Q8N5X7) 0.09
EIF5A isoform 2 (UniProt P63241) -0.043
EPB41 (UniProt P11171) 0.035
EIF2B3 (UniProt Q9NR50) 0.02
EIF3G (UniProt O75821) -0.011
EFTUD2 (UniProt Q15029) -0.003
EIF4EBP2 (UniProt Q13542) 0.016
ENO1 (UniProt P06733) 0.022
EFCAB2 (UniProt Q5VUJ9) 0.039
EIF3B isoform 2 (UniProt P55884) 0.048
EIF4B (UniProt F8VP89) 0.016
ELP1 (UniProt O95163) -0.011
EMC7 (UniProt Q9NPA0) 0.004
EEF2 (UniProt P13639) -0.024
EIF4ENIF1 isoform 3 (UniProt Q9NRA8) 0.025
EIF3M (UniProt Q7L2H7) 0.021
ENDOD1 (UniProt O94919) 0.052
EFHD2 (UniProt Q96C19) -0.026
ELP3 (UniProt Q9H9T3) -0.002
EMC10 (UniProt Q5UCC4) 0.015
ELMOD2 (UniProt Q8IZ81) -0.039
ELOVL6 (UniProt Q9H5J4) -0.002

A run of entries from the list above:
log2 fold change, inactive:
ENY2 (UniProt Q9NPA8) 0.169
EPB41, A0A2R8Y6D0 0.214
